In PMC5757173:
No constants are given. Whether binding was seen depends on the method and setting. Binding can be weak; no strength is given. Tags and fused reporters may be left off the sequences shown.

Molecular target: 6xHis-RARΔAB
Test: cross-linking; purified proteins (7 μM each) with 1.8 mM DSS, 2 h, room temperature; shifted bands in 10% SDS/PAGE digested with trypsin, LC-MS/MS (LTQ Orbitrap Velos); both purified

binding: binds
B1: Fasciculation and elongation zeta-1 (1-392) protein fused to an N-terminal 6xHis-tag (protein, UniProt Q99689 1-392)
chain: MEAPLVSLDEEFEDLRPSCSEDPEEKPQCFYGSSPHHLEDPSLSELENFSSEIISFKSMEDLVNEFDEKLNVCFRNYNAKTENLAPVKNQLQIQEEEETLQDEEVWDALTDNYIPSLSEDWRDPNIEALNGNCSDTEIHEKEEEEFNEKSENDSGINEEPLLTADQVIEEIEEMMQNSPDPEEEEEVLEEEDGGETSSQADSVLLQEMQALTQTFNNNWSYEGLRHMSGSELTELLDQVEGAIRDFSEELVQQLARRDELEFEKEVKNSFITVLIEVQNKQKEQRELMKKRRKEKGLSLQSSRIEKGNQMPLKRFSMEGISNILQSGIRQTFGSSGTDKQYLNTVIPYEKKASPPSVEDLQMLTNILFAMKEDNEKVPTLLTDYILKVLCPT
